Data set [1] in a line: general procedure: Fmoc solid-phase peptide synthesis; Tentagel S RAM; HATU, HOAt, DIPEA. The conditions noted are these: whole synthesis, based on resin loading, acetate.
A short description of data set [2]: general procedure: Fmoc solid-phase peptide synthesis; Tentagel S RAM (Knorr linker); HATU, HOAt, DIPEA. To be noted: whole synthesis, UPLC-MS, acetate.

For azemiopsin, in data set [1], the isolated yield entry is reported as “about 20%”. For the same substance, in data set [2], the “final LC-MS purity” value was “greater than 97%” and the “final purity (method not given)” value is “about 90%”.

These data come from publication PMC5793121 (Toxins, 2018).
